Data as given in publication PMC10898204.
Results are given in words; binding and its absence hold for the method and conditions named. For some assays here: In cells and extracts the contact can be indirect. Some entries that bind do so weakly or less than the wild type. For some assays here: Tags and fused reporters may be left off the sequences shown.

The chains behind the UniProt entries cited, without tags or fusion partners.
UniProt O43474: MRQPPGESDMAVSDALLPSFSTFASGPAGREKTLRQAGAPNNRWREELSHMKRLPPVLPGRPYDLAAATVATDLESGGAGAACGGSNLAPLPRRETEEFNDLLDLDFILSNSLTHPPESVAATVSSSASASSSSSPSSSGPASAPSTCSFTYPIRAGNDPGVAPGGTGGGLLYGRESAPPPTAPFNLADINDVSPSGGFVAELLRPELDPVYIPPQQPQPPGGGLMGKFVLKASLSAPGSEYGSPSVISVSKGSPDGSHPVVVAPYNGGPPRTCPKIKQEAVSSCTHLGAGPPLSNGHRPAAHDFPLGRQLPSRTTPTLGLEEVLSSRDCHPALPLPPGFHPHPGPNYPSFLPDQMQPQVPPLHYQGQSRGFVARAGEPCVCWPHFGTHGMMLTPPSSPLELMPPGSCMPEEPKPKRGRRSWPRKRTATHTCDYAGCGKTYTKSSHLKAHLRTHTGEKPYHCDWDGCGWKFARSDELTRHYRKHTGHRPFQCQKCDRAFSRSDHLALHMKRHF

Columns and labels:
[1] = biological target: T1, TXNIP (expressed from a TXNIP plasmid in HEK293 cells) (UniProt Q9H3M7); assay: co-IP; HEK293 cells transfected with TXNIP plasmid; lysates immunoprecipitated with a TXNIP antibody; co-immunoprecipitated KLF4 detected with an anti-KLF4 antibody
T1 sequence: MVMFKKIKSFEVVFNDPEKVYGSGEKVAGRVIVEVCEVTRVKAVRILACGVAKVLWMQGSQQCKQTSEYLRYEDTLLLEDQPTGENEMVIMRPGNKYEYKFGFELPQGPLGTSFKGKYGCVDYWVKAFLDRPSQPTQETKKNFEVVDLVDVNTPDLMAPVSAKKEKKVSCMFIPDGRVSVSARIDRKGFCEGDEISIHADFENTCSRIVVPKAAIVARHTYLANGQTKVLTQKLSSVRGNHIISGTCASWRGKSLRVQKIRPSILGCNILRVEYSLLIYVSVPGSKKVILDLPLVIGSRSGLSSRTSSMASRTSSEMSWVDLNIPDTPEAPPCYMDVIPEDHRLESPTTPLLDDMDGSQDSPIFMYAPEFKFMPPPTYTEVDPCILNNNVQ

[2] = biological target: T2, TXNIP-BD (TXNIP fused to the DNA-binding domain) (UniProt Q9H3M7); assay: two-hybrid; yeast two-hybrid; plasmids KLF4-AD and TXNIP-BD; growth on SD-Leu-Trp-His medium
T2 sequence: T1 sequence

binding [1] | binding [2] | Substance
binds | – | KLF4 (co-immunoprecipitated from HEK293 lysate) (from UniProt O43474 1-513)
– | binds | KLF4-AD (Krüppel-like factor 4 fused to the activation domain) (from UniProt O43474 1-513)
